Earlier results on one compound are cited in PMC11592477, “Bioengineering the Human Intestinal Mucosa and the Importance of Stromal Support for Pharmacological Evaluation In Vitro” (Cells, 2024).

The conditions of this data set: hydrophilic drugs; in words; ref [14]; cited from earlier work.

The structures appear in SMILES notation.

Turning to `CC1=C(C(=O)O)N2C(=O)[C@@H](NC(=O)[C@H](N)c3ccccc3)[C@H]2SC1` [cephalexin], the absorption in vivo result is recorded as “high”.
